Measured values published in patent US11732029B2, “Methods and compositions for the treatment of wounds” (The University of Chicago, priority 2017, dated 2023).

Legend:
[1] = Release of rhBMP-2 from collagen matrix (hydrogel); details: bovine type I collagen gel, 500 ng/mL rhBMP-2, 120 nM FabCol variant
[2] = Release of GFs from fibrin-mimetic (PEG) matrix; details: 10 μM vWF HBD-Cys; over 5 d

| Sequence | rhBMP-2 released from collagen hydrogels after 7 days [1] | release of CXCL-12γ from PEG-based synthetic matrix [2] | release of FGF-2 from PEG-based synthetic matrix [2] |
| --- | --- | --- | --- |
| GCGGSLRPAPPPISGGGYRARPAKAAATQKKVERKAPDA [FgHBD] | 80% | – | – |
| YIGLKDRKRPSELRRIASQVKYAC [vWF HBD] | – | slow-release | slow-release |
